This is a selection; strong and weak results do not stand in their true shares. For part of these data: At the low end of the ranking the order means little. This is one part of the list. For part of these data: Construct or isoform of the protein are uncertain.
Experiments:
HSF1 = HSF1 (UniProt Q00613); assay: DAPPL (digital affinity profiling via proximity ligation, sequencing); conditions: 10 mM Tris-HCl pH 7.5, 50 mM NaCl, 1 mM DTT, 4% glycerol, room temperature, 30 min; GST-TFs on glutathione beads, 16-mer random dsDNA library, 0.1% …; high values mean tight binding; double strand, one strand shown; scale: fold enrichment (6-mer frequency, TF over GST control)
ELF2 = target: T1, ELF2 (UniProt Q15723); assay: as above; conditions: 10 mM Tris-HCl pH 7.5, 50 mM NaCl, 1 mM DTT, 4% glycerol, room temperature, 30 min; GST-TFs on glutathione beads, 16-mer random dsDNA library, 0.1% …; high values mean tight binding; double strand, one strand shown; scale: fold enrichment (6-mer frequency, TF over GST control)
T1 sequence: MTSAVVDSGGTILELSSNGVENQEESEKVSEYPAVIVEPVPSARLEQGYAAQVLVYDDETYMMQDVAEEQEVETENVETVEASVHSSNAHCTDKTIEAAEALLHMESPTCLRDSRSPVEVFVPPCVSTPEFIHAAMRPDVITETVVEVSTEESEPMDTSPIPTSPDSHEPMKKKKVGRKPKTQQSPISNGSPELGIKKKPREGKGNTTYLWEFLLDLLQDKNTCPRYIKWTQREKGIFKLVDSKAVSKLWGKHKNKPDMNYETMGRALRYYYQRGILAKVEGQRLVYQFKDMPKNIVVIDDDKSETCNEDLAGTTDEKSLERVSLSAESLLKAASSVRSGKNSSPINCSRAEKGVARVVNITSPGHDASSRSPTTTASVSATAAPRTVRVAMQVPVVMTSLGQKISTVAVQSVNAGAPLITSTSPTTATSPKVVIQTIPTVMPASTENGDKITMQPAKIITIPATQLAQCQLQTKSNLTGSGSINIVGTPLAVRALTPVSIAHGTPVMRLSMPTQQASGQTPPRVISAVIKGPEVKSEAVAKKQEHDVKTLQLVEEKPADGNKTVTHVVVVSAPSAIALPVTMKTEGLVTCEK

Amino acid sequences for entries named in this document (tags omitted). A change or cut given only in a name is not applied to a line headed by its entry.
UniProt Q00613: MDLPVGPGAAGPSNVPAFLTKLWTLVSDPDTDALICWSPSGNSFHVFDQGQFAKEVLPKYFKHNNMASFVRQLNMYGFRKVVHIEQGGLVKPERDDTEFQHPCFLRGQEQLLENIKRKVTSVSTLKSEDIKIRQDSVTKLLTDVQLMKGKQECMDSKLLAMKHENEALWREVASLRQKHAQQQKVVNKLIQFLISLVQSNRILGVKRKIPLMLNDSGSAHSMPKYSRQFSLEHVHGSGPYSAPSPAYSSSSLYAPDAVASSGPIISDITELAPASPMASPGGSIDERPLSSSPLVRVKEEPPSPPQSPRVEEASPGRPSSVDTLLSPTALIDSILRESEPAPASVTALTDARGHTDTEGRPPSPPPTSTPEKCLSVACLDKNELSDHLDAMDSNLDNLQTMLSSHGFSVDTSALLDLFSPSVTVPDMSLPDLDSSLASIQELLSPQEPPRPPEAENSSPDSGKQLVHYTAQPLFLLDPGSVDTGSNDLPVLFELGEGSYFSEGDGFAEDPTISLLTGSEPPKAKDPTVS

Row | Sequence | binding signal (HSF1) | binding signal (ELF2)
1 | TGTACC | 1.03 | 1.29
2 | CTATCA | 0.993 | 1
3 | ACGCGT | 0.84 | 0.866
4 | GTAATG | 0.934 | 1.07
5 | CACGTA | 1.05 | 1.1
6 | TGATAC | 0.973 | 1.09
